Results taken from PMC10618106.
Results are given in words; binding and its absence hold for the method and conditions named. In cells and extracts the contact can be indirect. These calls come from enrichment with a bait or labelling near it, and not all partners need be listed.

Protein sequences, listed by entry. Tags and fused reporters are not part of them.
UniProt P68400: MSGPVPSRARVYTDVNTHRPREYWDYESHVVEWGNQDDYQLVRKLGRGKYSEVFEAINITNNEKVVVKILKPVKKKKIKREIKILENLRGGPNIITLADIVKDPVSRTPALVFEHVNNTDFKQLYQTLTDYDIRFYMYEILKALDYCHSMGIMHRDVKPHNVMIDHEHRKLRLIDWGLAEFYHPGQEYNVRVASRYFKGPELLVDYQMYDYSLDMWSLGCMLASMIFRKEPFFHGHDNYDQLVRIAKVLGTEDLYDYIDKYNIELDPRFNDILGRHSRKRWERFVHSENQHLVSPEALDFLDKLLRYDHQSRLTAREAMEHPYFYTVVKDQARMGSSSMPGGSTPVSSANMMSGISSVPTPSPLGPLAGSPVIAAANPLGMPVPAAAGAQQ

biological target: FLAG-tagged CK2α (human) (UniProt P68400); experiment: affinity purification with mass spectrometry; FLAG-CK2α expressed in HEK293; nuclear fractions of cells starved and restimulated with serum to early G1 (6 h) or late G1 (15-16 h); pre-cleared with normal IgG-agarose, anti-FLAG M2 agarose, eluted with FLAG peptide, trypsin, nano-LC MS/MS (Mascot)

binding | Binder
binds | UTP11 (protein, UniProt Q9Y3A2 1-253) MAAAFRKAAKSRQREHRERSQPGFRKHLGLLEKKKDYKLRADDYRKKQEYLKALRKKALEKNPDEFYYKMTRVKLQDGVHIIKETKEEVTPEQLKLMRTQDVKYIEMKRVAEAKKIERLKSELHLLDFQGKQQNKHVFFFDTKKEVEQFDVATHLQTAPELVDRVFNRPRIETLQKEKVKGVTNQTGLKRIAKERQKQYNCLTQRIEREKKLFVIAQKIQTRKDLMDKTQKVKVKKETVNSPAIYKFQSRRKR
binds | UTP18 (protein, UniProt Q9Y5J1 1-556) MPPERRRRMKLDRRTGAKPKRKPGMRPDWKAGAGPGGPPQKPAPSSQRKPPARPSAAAAAIAVAAAEEERRLRQRNRLRLEEDKPAVERCLEELVFGDVENDEDALLRRLRGPRVQEHEDSGDSEVENEAKGNFPPQKKPVWVDEEDEDEEMVDMMNNRFRKDMMKNASESKLSKDNLKKRLKEEFQHAMGGVPAWAETTKRKTSSDDESEEDEDDLLQRTGNFISTSTSLPRGILKMKNCQHANAERPTVARISSVQFHPGAQIVMVAGLDNAVSLFQVDGKTNPKIQSIYLERFPIFKACFSANGEEVLATSTHSKVLYVYDMLAGKLIPVHQVRGLKEKIVRSFEVSPDGSFLLINGIAGYLHLLAMKTKELIGSMKINGRVAASTFSSDSKKVYASSGDGEVYVWDVNSRKCLNRFVDEGSLYGLSIATSRNGQYVACGSNCGVVNIYNQDSCLQETNPKPIKAIMNLVTGVTSLTFNPTTEILAIASEKMKEAVRLVHLPSCTVFSNFPVIKNKNISHVHTMDFSPRSGYFALGNEKGKALMYRLHHYSDF
binds | General transcription factor 3C polypeptide 4 (protein, UniProt Q9UKN8 1-822) MNTADQARVGPADDGPAPSGEEEGEGGGEAGGKEPAADAAPGPSAAFRLMVTRREPAVKLQYAVSGLEPLAWSEDHRVSVSTARSIAVLELICDVHNPGQDLVIHRTSVPAPLNSCLLKVGSKTEVAECKEKFAASKDPTVSQTFMLDRVFNPEGKALPPMRGFKYTSWSPMGCDANGRCLLAALTMDNRLTIQANLNRLQWVQLVDLTEIYGERLYETSYRLSKNEAPEGNLGDFAEFQRRHSMQTPVRMEWSGICTTQQVKHNNECRDVGSVLLAVLFENGNIAVWQFQLPFVGKESISSCNTIESGITSPSVLFWWEYEHNNRKMSGLIVGSAFGPIKILPVNLKAVKGYFTLRQPVILWKEMDQLPVHSIKCVPLYHPYQKCSCSLVVAARGSYVFWCLLLISKAGLNVHNSHVTGLHSLPIVSMTADKQNGTVYTCSSDGKVRQLIPIFTDVALKFEHQLIKLSDVFGSVRTHGIAVSPCGAYLAIITTEGMINGLHPVNKNYQVQFVTLKTFEEAAAQLLESSVQNLFKQVDLIDLVRWKILKDKHIPQFLQEALEKKIESSGVTYFWRFKLFLLRILYQSMQKTPSEALWKPTHEDSKILLVDSPGMGNADDEQQEEGTSSKQVVKQGLQERSKEGDVEEPTDDSLPTTGDAGGREPMEEKLLEIQGKIEAVEMHLTREHMKRVLGEVYLHTWITENTSIPTRGLCNFLMSDEEYDDRTARVLIGHISKKMNKQTFPEHCSLCKEILPFTDRKQAVCSNGHIWLRCFLTYQSCQSLIYRRCLLHDSIARHPAPEDPDWIKRLLQSPCPFCDSPVF
binds | DDX52 (protein, UniProt Q9Y2R4 1-599) MDVHDLFRRLGAGAKFDTRRFSADAARFQIGKRKYDFDSSEVLQGLDFFGNKKSVPGVCGASQTHQKPQNGEKKEESLTERKREQSKKKRKTMTSEIASQEEGATIQWMSSVEAKIEDKKVQRESKLTSGKLENLRKEKINFLRNKHKIHVQGTDLPDPIATFQQLDQEYKINSRLLQNILDAGFQMPTPIQMQAIPVMLHGRELLASAPTGSGKTLAFSIPILMQLKQPANKGFRALIISPTRELASQIHRELIKISEGTGFRIHMIHKAAVAAKKFGPKSSKKFDILVTTPNRLIYLLKQDPPGIDLASVEWLVVDESDKLFEDGKTGFRDQLASIFLACTSHKVRRAMFSATFAYDVEQWCKLNLDNVISVSIGARNSAVETVEQELLFVGSETGKLLAVRELVKKGFNPPVLVFVQSIERAKELFHELIYEGINVDVIHAERTQQQRDNTVHSFRAGKIWVLICTALLARGIDFKGVNLVINYDFPTSSVEYIHRIGRTGRAGNKGKAITFFTEDDKPLLRSVANVIQQAGCPVPEYIKGFQKLLSKQKKKMIKKPLERESISTTPKCFLEKAKDKQKKVTGQNSKKKVALEDKS
binds | UTP14A (protein, UniProt Q9BVJ6 1-771) MTANRLAESLLALSQQEELADLPKDYLLSESEDEGDNDGERKHQKLLEAISSLDGKNRRKLAERSEASLKVSEFNVSSEGSGEKLVLADLLEPVKTSSSLATVKKQLSRVKSKKTVELPLNKEEIERIHREVAFNKTAQVLSKWDPVVLKNRQAEQLVFPLEKEEPAIAPIEHVLSGWKARTPLEQEIFNLLHKNKQPVTDPLLTPVEKASLRAMSLEEAKMRRAELQRARALQSYYEAKARREKKIKSKKYHKVVKKGKAKKALKEFEQLRKVNPAAALEELEKIEKARMMERMSLKHQNSGKWAKSKAIMAKYDLEARQAMQEQLSKNKELTQKLQVASESEEEEGGTEDVEELLVPDVVNEVQMNADGPNPWMLRSCTSDTKEAATQEDPEQLPELEAHGVSESEGEERPVAEEEILLREFEERRSLRKRSELSQDAEPAGSQETKDSGSQEVLSELRVLSQKLKENHQSRKQKASSEGTIPQVQREEPAPEEEEPLLLQRPERVQTLEELEELGKEECFQNKELPRPVLEGQQSERTPNNRPDAPKEKKKKEQMIDLQNLLTTQSPSVKSLAVPTIEELEDEEERNHRQMIKEAFAGDDVIRDFLKEKREAVEASKPKDVDLTLPGWGEWGGVGLKPSAKKRRRFLIKAPEGPPRKDKNLPNVIINEKRNIHAAAHQVRVLPYPFTHHWQFERTIQTPIGSTWNTQRAFQKLTTPKVVTKPGHIINPIKAEDVGYRSSSRSDLSVIQRNPKRITTRHKKQLKKCSVD
binds | TCOF1 (protein, UniProt Q13428 1-1488) MAEARKRRELLPLIYHHLLRAGYVRAAREVKEQSGQKCFLAQPVTLLDIYTHWQQTSELGRKRKAEEDAALQAKKTRVSDPISTSESSEEEEEAEAETAKATPRLASTNSSVLGADLPSSMKEKAKAETEKAGKTGNSMPHPATGKTVANLLSGKSPRKSAEPSANTTLVSETEEEGSVPAFGAAAKPGMVSAGQADSSSEDTSSSSDETDVEGKPSVKPAQVKASSVSTKESPARKAAPAPGKVGDVTPQVKGGALPPAKRAKKPEEESESSEEGSESEEEAPAGTRSQVKASEKILQVRAASAPAKGTPGKGATPAPPGKAGAVASQTKAGKPEEDSESSSEESSDSEEETPAAKALLQAKASGKTSQVGAASAPAKESPRKGAAPAPPGKTGPAVAKAQAGKREEDSQSSSEESDSEEEAPAQAKPSGKAPQVRAASAPAKESPRKGAAPAPPRKTGPAAAQVQVGKQEEDSRSSSEESDSDREALAAMNAAQVKPLGKSPQVKPASTMGMGPLGKGAGPVPPGKVGPATPSAQVGKWEEDSESSSEESSDSSDGEVPTAVAPAQEKSLGNILQAKPTSSPAKGPPQKAGPVAVQVKAEKPMDNSESSEESSDSADSEEAPAAMTAAQAKPALKIPQTKACPKKTNTTASAKVAPVRVGTQAPRKAGTATSPAGSSPAVAGGTQRPAEDSSSSEESDSEEEKTGLAVTVGQAKSVGKGLQVKAASVPVKGSLGQGTAPVLPGKTGPTVTQVKAEKQEDSESSEEESDSEEAAASPAQVKTSVKKTQAKANPAAARAPSAKGTISAPGKVVTAAAQAKQRSPSKVKPPVRNPQNSTVLARGPASVPSVGKAVATAAQAQTGPEEDSGSSEEESDSEEEAETLAQVKPSGKTHQIRAALAPAKESPRKGAAPTPPGKTGPSAAQAGKQDDSGSSSEESDSDGEAPAAVTSAQVIKPPLIFVDPNRSPAGPAATPAQAQAASTPRKARASESTARSSSSESEDEDVIPATQCLTPGIRTNVVTMPTAHPRIAPKASMAGASSSKESSRISDGKKQEGPATQVSKKNPASLPLTQAALKVLAQKASEAQPPVARTQPSSGVDSAVGTLPATSPQSTSVQAKGTNKLRKPKLPEVQQATKAPESSDDSEDSSDSSSGSEEDGEGPQGAKSAHTLGPTPSRTETLVEETAAESSEDDVVAPSQSLLSGYMTPGLTPANSQASKATPKLDSSPSVSSTLAAKDDPDGKQEAKPQQAAGMLSPKTGGKEAASGTTPQKSRKPKKGAGNPQASTLALQSNITQCLLGQPWPLNEAQVQASVVKVLTELLEQERKKVVDTTKESSRKGWESRKRKLSGDQPAARTPRSKKKKKLGAGEGGEASVSPEKTSTTSKGKAKRDKASGDVKEKKGKGSLGSQGAKDEPEEELQKGMGTVEGGDQSNPKSKKEKKKSDKRKKDKEKKEKKKKAKKASTKDSESPSQKKKKKKKKTAEQTV
binds | DDX18 (protein, UniProt Q9NVP1 1-670) MSHLPMKLLRKKIEKRNLKLRQRNLKFQGASNLTLSETQNGDVSEETMGSRKVKKSKQKPMNVGLSETQNGGMSQEAVGNIKVTKSPQKSTVLTNGEAAMQSSNSESKKKKKKKRKMVNDAEPDTKKAKTENKGKSEEESAETTKETENNVEKPDNDEDESEVPSLPLGLTGAFEDTSFASLCNLVNENTLKAIKEMGFTNMTEIQHKSIRPLLEGRDLLAAAKTGSGKTLAFLIPAVELIVKLRFMPRNGTGVLILSPTRELAMQTFGVLKELMTHHVHTYGLIMGGSNRSAEAQKLGNGINIIVATPGRLLDHMQNTPGFMYKNLQCLVIDEADRILDVGFEEELKQIIKLLPTRRQTMLFSATQTRKVEDLARISLKKEPLYVGVDDDKANATVDGLEQGYVVCPSEKRFLLLFTFLKKNRKKKLMVFFSSCMSVKYHYELLNYIDLPVLAIHGKQKQNKRTTTFFQFCNADSGTLLCTDVAARGLDIPEVDWIVQYDPPDDPKEYIHRVGRTARGLNGRGHALLILRPEELGFLRYLKQSKVPLSEFDFSWSKISDIQSQLEKLIEKNYFLHKSAQEAYKSYIRAYDSHSLKQIFNVNNLNLPQVALSFGFKVPPFVDLNVNSNEGKQKKRGGGGGFGYQKTKKVEKSKIFKHISKKSSDSRQFSH
